From PMC12845483 (2026)

Assay: peptide made by a vendor
Conditions: whole synthesis, HPLC

Row | Substance | purity (crude or final not stated) [%]
1 | CRGDKGPDCRRRRRRRRRR | 99
2 | DGARYCRGDCFDG-RRRRRRRRRR | 99
3 | RRRRRRRRRR | 98
4 | RRRRRRRRRR-RGD | 96

End groups of sequences in plain letters are not given here.
